PubChem BioAssay AID504764 | Drosophila RNAi Screening Center, 2011

Test: 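Knock-downs that raise or lower a Notch target reporter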 (primary screen)
Cells: Drosophila Kc167 cells
Reagent: long dsRNA against Drosophila genes
Duration: about 5 days (4 days dsRNA, then 24 h after transfection)
Conditions: transfection of constitutively active membrane-tethered Notch lacking the extracellular domain, read 24 h later
Measurement: 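Firefly luciferase from an E(spl)m3 reporter with active Notch, plus control-promoter and uninduced reporter wells for normalisation; unnormalised counts, duplicate wells a and b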
Reading the numbers: induced reporter light, run 1, well a and induced reporter light, run 1, well b: higher = more light from the Notch target reporter with active Notch; control promoter light, run 1, well a and control promoter light, run 1, well b: higher = more light from the viral control promoter (cell number, transfection, viability); uninduced reporter light, run 1, well a: higher = more light from the Notch target reporter without active Notch
Rule for the call: 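Wells with low control signal or poorly matching duplicates excluded; duplicates averaged; per source plate, z beyond ±2 for induced/control log2 ratio or beyond ±1.8 for induced/uninduced marks a hit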
Calls: active = modifier hit (raised or lowered Notch signal); inactive = not a hit
In all, the deposit lists about 22,000 reagents; below is a random part of those with a known target gene and a result. Of all reagents, 403 (1.9%) are marked active. 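Unnormalised raw counts per well; ratio z-scores behind the hit calls and whether each hit raises or lowers signal are not deposited.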 Not stated in the record: the amount of reagent.

With CG8635 [DRSC07226], how do the results read?
induced reporter light, run 1, well a: 1.48e5; induced reporter light, run 1, well b: 1.46e5; control promoter light, run 1, well a: 1.37e5; control promoter light, run 1, well b: 1.57e5; uninduced reporter light, run 1, well a: 11840; call: inactive

What did the screen give for Mcm7 [DRSC11219]?
induced reporter light, run 1, well a: 1.01e5; induced reporter light, run 1, well b: 82870; control promoter light, run 1, well a: 72135; control promoter light, run 1, well b: 48780; uninduced reporter light, run 1, well a: 8160; call: inactive

Which result is listed for OstDelta [DRSC06980]?
induced reporter light, run 1, well a: 83760; induced reporter light, run 1, well b: 87625; control promoter light, run 1, well a: 1.58e5; control promoter light, run 1, well b: 1.53e5; uninduced reporter light, run 1, well a: 5428; call: inactive

For SMC5 [DRSC11849], what was measured?
induced reporter light, run 1, well a: 1.05e5; induced reporter light, run 1, well b: 1.13e5; control promoter light, run 1, well a: 83680; control promoter light, run 1, well b: 72115; uninduced reporter light, run 1, well a: 8850; call: inactive

With Tbc1d22 [DRSC15867], what does the deposit list?
induced reporter light, run 1, well a: 1.65e5; induced reporter light, run 1, well b: 1.68e5; control promoter light, run 1, well a: 2.22e5; control promoter light, run 1, well b: 2.02e5; uninduced reporter light, run 1, well a: 14700; call: inactive

How did the screen score VhaPPA1-2 [DRSC16176]?
induced reporter light, run 1, well a: 2.30e5; induced reporter light, run 1, well b: 2.23e5; control promoter light, run 1, well a: 2.53e5; control promoter light, run 1, well b: 2.42e5; uninduced reporter light, run 1, well a: 18640; call: inactive

With Efa6 [DRSC13569], what was measured?
induced reporter light, run 1, well a: 57320; induced reporter light, run 1, well b: 46080; control promoter light, run 1, well a: 83170; control promoter light, run 1, well b: 66915; uninduced reporter light, run 1, well a: 7305; call: inactive

For Efa6 [DRSC15312], what was measured?
induced reporter light, run 1, well a: 60795; induced reporter light, run 1, well b: 48000; control promoter light, run 1, well a: 20180; control promoter light, run 1, well b: 20255; uninduced reporter light, run 1, well a: 9495; call: inactive

For Efa6 [DRSC16141], what was measured?
induced reporter light, run 1, well a: 2.04e5; induced reporter light, run 1, well b: 1.89e5; control promoter light, run 1, well a: 1.96e5; control promoter light, run 1, well b: 1.52e5; uninduced reporter light, run 1, well a: 11220; call: inactive

What is on record for Cyp309a1 [DRSC00747]?
induced reporter light, run 1, well a: 1.08e5; induced reporter light, run 1, well b: 92180; control promoter light, run 1, well a: 94115; control promoter light, run 1, well b: 75885; uninduced reporter light, run 1, well a: 8865; call: inactive

With lili [DRSC14143], what does the deposit list?
induced reporter light, run 1, well a: 1.85e5; induced reporter light, run 1, well b: 1.79e5; control promoter light, run 1, well a: 1.98e5; control promoter light, run 1, well b: 2.05e5; uninduced reporter light, run 1, well a: 13020; call: inactive

With CG17264 [DRSC00500], how do the results read?
induced reporter light, run 1, well a: 1.16e5; induced reporter light, run 1, well b: 1.21e5; control promoter light, run 1, well a: 78105; control promoter light, run 1, well b: 1.03e5; uninduced reporter light, run 1, well a: 10445; call: inactive

What did the screen give for CG7029 [DRSC16177]?
induced reporter light, run 1, well a: 11692; induced reporter light, run 1, well b: 9450; control promoter light, run 1, well a: 8210; control promoter light, run 1, well b: 12000; uninduced reporter light, run 1, well a: 1340; call: inactive

Which result is listed for Hcf [DRSC17143]?
induced reporter light, run 1, well a: 67015; induced reporter light, run 1, well b: 72400; control promoter light, run 1, well a: 1.66e5; control promoter light, run 1, well b: 1.64e5; uninduced reporter light, run 1, well a: 6260; call: active

Which result is listed for Cyp4p2 [DRSC07373]?
induced reporter light, run 1, well a: 2.15e5; induced reporter light, run 1, well b: 1.94e5; control promoter light, run 1, well a: 2.32e5; control promoter light, run 1, well b: 2.64e5; uninduced reporter light, run 1, well a: 17605; call: inactive

For Vlet [DRSC19845], what was measured?
induced reporter light, run 1, well a: 1.78e5; induced reporter light, run 1, well b: 2.08e5; control promoter light, run 1, well a: 2.59e5; control promoter light, run 1, well b: 2.18e5; uninduced reporter light, run 1, well a: 14820; call: inactive

For Ufd4 [DRSC02871], how do the results read?
induced reporter light, run 1, well a: 83875; induced reporter light, run 1, well b: 87115; control promoter light, run 1, well a: 40115; control promoter light, run 1, well b: 63560; uninduced reporter light, run 1, well a: 11635; call: inactive

Which result is listed for comt [DRSC20319]?
induced reporter light, run 1, well a: 1.19e5; induced reporter light, run 1, well b: 1.06e5; control promoter light, run 1, well a: 2.52e5; control promoter light, run 1, well b: 2.30e5; uninduced reporter light, run 1, well a: 9500; call: inactive
